Test [1] deals with Rip2 (murine, HA-tagged) (mouse) (UniProt P58801). As to the kind of experiment: co-IP; tagged proteins overexpressed in HEK293T cells; lysed in IP buffer (50 mM Tris, 150 mM NaCl, 2 mM EDTA, 1% NP-40); IP with anti-myc or anti-HA, 4 °C; immunoblot.
The target in test [2] is Rab1a (murine, myc-tagged) (mouse) (UniProt P62821). The description is as above.

Protein sequences, listed by entry. Tags and fused reporters are not part of them.
UniProt P58801: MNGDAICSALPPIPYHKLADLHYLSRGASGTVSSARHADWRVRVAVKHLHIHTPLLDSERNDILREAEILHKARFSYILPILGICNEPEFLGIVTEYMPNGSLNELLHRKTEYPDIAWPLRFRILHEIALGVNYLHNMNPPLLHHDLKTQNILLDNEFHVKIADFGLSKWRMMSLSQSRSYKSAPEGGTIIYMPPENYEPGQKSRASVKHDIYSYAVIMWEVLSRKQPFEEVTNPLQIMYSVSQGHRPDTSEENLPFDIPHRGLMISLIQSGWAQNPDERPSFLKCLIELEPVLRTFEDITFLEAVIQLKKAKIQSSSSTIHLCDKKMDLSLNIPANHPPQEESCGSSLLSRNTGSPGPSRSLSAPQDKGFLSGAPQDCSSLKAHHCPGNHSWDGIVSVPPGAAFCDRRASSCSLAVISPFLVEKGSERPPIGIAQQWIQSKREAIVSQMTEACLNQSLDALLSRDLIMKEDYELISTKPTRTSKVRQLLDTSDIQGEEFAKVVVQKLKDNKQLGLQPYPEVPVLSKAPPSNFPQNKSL
UniProt P62821: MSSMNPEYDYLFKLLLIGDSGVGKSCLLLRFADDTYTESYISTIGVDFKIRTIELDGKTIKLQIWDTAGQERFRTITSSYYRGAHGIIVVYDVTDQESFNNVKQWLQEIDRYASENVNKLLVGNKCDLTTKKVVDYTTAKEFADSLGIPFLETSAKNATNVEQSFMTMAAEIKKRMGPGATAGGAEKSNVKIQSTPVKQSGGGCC

Results are given in words; binding and its absence hold for the method and conditions named. In cells and extracts the contact can be indirect. Some binding calls cover weakened binding; strength is not graded here.

Take “Rab1a (murine, myc-tagged) (from UniProt P62821 1-205)”: in test [1], the binding result is on record as “binds”.
On to “Rip2 (murine, HA-tagged) (from UniProt P58801 1-539)”, for which the binding entry in test [2] is listed as “binds”.

The record behind these values is paper PMC6796897.
